PubChem BioAssay AID602196 – INSERM, 2012
The whole screen tested about 23,000 reagents; this is a part drawn at random. 455 of them (2%) were called active. 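Active includes both protection and sensitisation; some change values fall well beyond the stated -50 to +50 range.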 Unmarked entries are inactive. No sequences are given here. Not stated in the record: the amount of reagent.

Test: 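Genes whose knock-down alters cisplatin killing of lung cancer cells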
System: human A549 lung cancer cells
Reagents: siRNA pair against human genes
Duration: 48 h transfection before cisplatin; time from cisplatin to read-out not stated
Conditions: cisplatin at a dose killing half of control-siRNA cells; exact dose and duration not given
Read-out: 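Cisplatin cell death as a shift from the 50% death seen with control siRNA; siRNAs toxic or growth-blocking alone scored 0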
Scale: two-siRNA summed score (-2 to +2): higher = both siRNAs protect from cisplatin killing; -2 means both sensitise; mean protection from cisplatin (shift in death) and protection from cisplatin (shift in death), siRNA C and protection from cisplatin (shift in death), siRNA D: higher = protection from cisplatin killing
Hit rule: 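Each siRNA scores 0 if harmful alone by LDH or WST-1, otherwise +1 if it reduces and -1 if it increases cisplatin killing; a gene is active when both siRNAs agree (sum +2 or -2)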
Meaning of the calls: active = both siRNAs shift cisplatin killing the same way; inactive = no consistent shift, or siRNA harmful alone

two-siRNA summed score (-2 to +2),mean protection from cisplatin (shift in death) (%),"protection from cisplatin (shift in death), siRNA C (%)","protection from cisplatin (shift in death), siRNA D (%)",gene symbol
0,-4.3,-4.5,-4.1,GHRH (growth hormone releasing hormone)
0,0.2,-3.3,3.7,FAT1 (FAT atypical cadherin 1)
2 (active),22.2,25.5,18.9,TMPRSS3 (transmembrane serine protease 3)
0,8.7,9.4,7.9,ARMC8 (armadillo repeat containing 8)
1,8,18.5,-2.4,SDC2 (syndecan 2)
0,3.3,-2.6,9.2,LINC00239 (long independently transcribed non-coding RNA 239)
0,0.2,-2.4,2.8,LOC441827
0,6.2,1.7,10.8,KIAA1987
0,5.3,6.9,3.7,BRWD1 (bromodomain and WD repeat domain containing 1)
0,8.4,16,0.8,NPTX1 (neuronal pentraxin 1)
-1,-12.1,-14.6,-9.7,LOC340578
0,-6.9,0.9,-14.6,NSG2 (neuronal vesicle trafficking associated 2)
0,0.2,12.1,-11.7,CCDC181 (coiled-coil domain containing 181)
0,0.3,7.4,-6.9,ZFP82 (ZFP82 zinc finger protein)
0,-3.1,5,-11.2,RALB (RAS like proto-oncogene B)
0,-0.2,-3,2.6,THAP10 (THAP domain containing 10)
-1,-12.9,-9.9,-15.9,ISG15 (ISG15 ubiquitin like modifier)
0,-5.6,-7.5,-3.6,KCNK7 (potassium two pore domain channel subfamily K member 7)
0,-0.9,3.4,-5.2,CDS2 (CDP-diacylglycerol synthase 2)
0,5.1,-3.7,14,RPRD1A (regulation of nuclear pre-mRNA domain containing 1A)
0,0.2,-6.1,6.5,RPRML (reprimo like)
0,0.7,-2.8,4.2,PPIAL4A (peptidylprolyl isomerase A like 4A)
0,-0.4,6.6,-7.5,OR2A2 (olfactory receptor family 2 subfamily A member 2)

Records listed above with an active call (1):
two-siRNA summed score (-2 to +2),mean protection from cisplatin (shift in death) (%),"protection from cisplatin (shift in death), siRNA C (%)","protection from cisplatin (shift in death), siRNA D (%)",gene symbol
2 (active),22.2,25.5,18.9,TMPRSS3 (transmembrane serine protease 3)
